Results: PubChem BioAssay AID2685 (National Center for Advancing Translational Sciences (NCATS), 2010)
The campaign covered roughly 320,000 compounds. About 2,100 (0.66%) were called active. This list was built around the results that the source calls inconclusive (neither active nor inactive); the mix of calls is not that of the screen. The call rests on the fitted dose curve; in most records, active means well fitted inhibition curve with a large enough effect in the signal ratio, with a control signal flat (not every such curve was filed as active); inconclusive means small, poorly fitted or top-dose-only effect, or effect the other way, or a change in a side signal; inactive means flat fitted curve, though single readings scatter; the % refers to the signal ratio. Potencies beside an inconclusive call are fits to weak or partial responses and may not hold up.

Assay: qHTS Assay for Lipid Storage Modulators in Drosophila S3 Cells
Conditions: BODIPY lipid droplet fluorescence, 18-24 h, cells fed with added oleic acid; lipid storage change, negative = inhibition: at 46.1 µM (top of the series) unless noted
Method in brief: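 Laser-scanning cytometry quantifies lipid droplet accumulation (500–530 nm total intensity; droplet/cell object ratio) in oleic acid-fed (400 uM added) Drosophila S3 cells treated with a concentration series. 20 uM Triacsin C defined 100% inhibition.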
On the % scale 0 is the no-effect control and ±100 the full control effect; potency means the concentration at half of the fitted maximal effect.

| Compound | lipid storage change, negative = inhibition | Potency |
| --- | --- | --- |
| CC(C)(C)c1cc(C(=O)O)c(CN2CCCCC2)o1 | inconclusive: -24.9% | – |
| Cc1c(C(=O)NCCO)sc2nc3n(c(=O)c12)CCC3 | inactive | – |
| Cc1sc2ncn(CC(=O)NCCCC(=O)N3CCCCC3)c(=O)c2c1C | – | inconclusive: 580 nM [falling, full curve] |
| Cc1cccc(NC(=O)COC(=O)c2ccc(S(=O)(=O)N3CCCC3)cc2)c1 | inconclusive | – |
| O=C(c1ccc(S(=O)(=O)c2ccccc2Cl)c([N+](=O)[O-])c1)N1CCCCCC1 | – | inconclusive: 20600 nM [falling, single point] |
| O=C(COc1ccc(/C=N/NC(=O)c2ccncc2)cc1)Nc1ccccc1 | inconclusive: -59.6% | – |
| COc1ccc(CCC(=O)Nc2cccc(Cl)c2)cc1 | inconclusive: 87.9% | – |
| CCOc1cc(-c2nc(C)c(C(C)=O)n2O)ccc1OCC(=O)Nc1cccc(C)c1 | inconclusive: 78.2% | – |
| Cn1cnc(C(=O)N2CCN(c3ccccc3)CC2)c1C(=O)N1CCN(c2ccccc2)CC1 | inconclusive: 7.45% | – |
| O=C(COC(=O)c1cccc(S(=O)(=O)N2CCOCC2)c1)Nc1ncc(Cl)cc1Cl | inconclusive: -23.7% | – |
| O=C(NN1CCOCC1)c1cccc(COc2cccc(Br)c2)c1 | – | inconclusive: 5.2 nM [activator, full curve, poor fit] |
| CN(C)S(=O)(=O)c1cccc(NC(=O)c2cccc(S(=O)(=O)N3CCCCC3)c2)c1 | inconclusive | – |
| Cc1cc(C(=O)OCC(=O)Nc2cc(S(=O)(=O)N3CCOCC3)ccc2Cl)c(C)o1 | inconclusive: -0.517% | – |
| c1ccc(CNc2ncnc3sccc23)cc1 | – | active: 16400 nM |
| O=C(NCc1nc2ccccc2[nH]1)c1c(F)c(F)c(F)c(F)c1F | inactive | – |
| COc1cc(C)c(NC(c2ccccc2)c2ccccc2)cc1OC | inconclusive: -0.518% | – |
| COc1cccc(-c2nnc(Nc3nc4c(F)cccc4s3)o2)c1 | inconclusive: -11.4% | – |
| CCOc1ccc(NS(=O)(=O)c2ccc(-c3cnc(C4CC4)o3)cc2)cc1 | inconclusive: -67% | – |
| CCC1=NN2C(=N)/C(=C/c3ccc(OS(=O)(=O)c4ccccc4)c(OC)c3)C(=O)N=C2S1 | – | active: 1840 nM |
| COc1ccc(CCN2C(=O)C(Oc3ccccc3C)C2c2ccc3c(c2)OCO3)cc1 (centres undefined) | – | inconclusive: 2310 nM [activator, partial curve] |
| CC1=CC(C)C2(CO)COC(c3ccc(O)cc3)C1C2C (centres undefined) | – | inconclusive: 231 nM [falling, full curve, poor fit] |
| Cc1ccc(S(=O)(=O)N2CCCC(C)C2)cc1 (centres undefined) | inconclusive: 1.38% | – |
| C=CCn1c(=S)[nH]c2cc(-c3ccccc3)sc2c1=O | inconclusive: 37.4% | – |
| COc1ccc(CCNC(=O)CCN2C(=O)c3ccccc3C2=O)cc1OC | inconclusive: 15.1% | – |
| C1=C(c2ccccc2)N2CCN=C2S1 | inconclusive: 5.05% | – |

3 entries from above, ordered by molar mass, falling.

| Compound | lipid storage change, negative = inhibition | Potency |
| --- | --- | --- |
| COc1ccc(CCC(=O)Nc2cccc(Cl)c2)cc1 | inconclusive: 87.9% | – |
| c1ccc(CNc2ncnc3sccc23)cc1 | – | active: 16400 nM |
| C1=C(c2ccccc2)N2CCN=C2S1 | inconclusive: 5.05% | – |

Remaining list, next part.

| Compound | lipid storage change, negative = inhibition | Potency |
| --- | --- | --- |
| OC(COC(c1ccc(Cl)cc1)c1ccc(Cl)cc1)CN1CCN(c2ccccn2)CC1 (centres undefined) | – | inconclusive: 29100 nM [cytotoxic, single point] |
| C=CCn1c(C(CCCC)CC(O)COCC(C)C)n[nH]c1=S (centres undefined) | inconclusive: -2.52% | – |
| CC12CCC(=O)C=C1CCC1C2CCC2(C)C1CC[C@]2(O)C(=O)CO (some centres undefined) | inconclusive: 27.8% | – |
| COc1ccc(CCN2C(=O)CC(N3CCN(C/C=C/c4ccccc4)CC3)C2=O)cc1OC (centres undefined) | inconclusive: -0.0988% | – |
| O=C(c1cccc(S(=O)(=O)N2CCCCC2)c1)N1CCN(Cc2ccccc2)CC1 | – | inconclusive: 4.6 nM [falling, full curve, poor fit] |
| O=C(COC(=O)C1CCCCC1)Nc1ccc(N2CCCCC2)cc1 | inconclusive: -12.6% | – |
| Cc1ccc(C)c(SCC(=O)NC(=O)NCc2ccccc2)c1 | inconclusive: 20.2% | – |
| O=C(CCc1nc(-c2ccccc2Cl)no1)NCc1ccco1 | – | inconclusive: 92 nM [cytotoxic, full curve, poor fit] |
| CCOC(=O)c1c(NC(=O)c2ccc(S(=O)(=O)N3CCOCC3)cc2)sc2c1CCN(C(C)C)C2 | inactive | – |
| O=C(O)c1ccccc1OCCOCCOc1ccccc1C(=O)O | inconclusive: 13% | – |
| COc1cc(/C=C/C(=O)OCC(=O)Nc2cccc(Oc3ccccc3)c2)ccc1O | – | inconclusive: 8200 nM [falling, partial curve] |
| CC(C)[C@H](NC(=O)c1ccccc1Br)C(=O)OCc1nc2ccsc2c(=O)[nH]1 | inconclusive | – |
| CCC(C(=O)Nc1nc(C)cs1)c1ccccc1 (centres undefined) | – | inconclusive: 820 nM [activator, full curve, poor fit] |
| O=C(N/N=C1/CC2C=CCC12)c1ccco1 (centres undefined) | – | inconclusive: 32600 nM [rising, partial curve] |
| COc1cc(NC(=S)NCc2cccnc2)c(OC)cc1Cl | inconclusive: 47.1% | – |
| COc1ccc(N2CCN(C(=O)NCc3cccc(OC)c3)CC2)cc1 | inconclusive: 84.8% | – |
| O=C(NCc1ccco1)C(c1ccncc1)N(C(=O)Cn1nnc2ccccc21)c1ccccc1 (centres undefined) | inconclusive: -29.7% | – |
| O=C(N/N=C1/CC2CCC1C2)c1cc2ccccc2cc1O (centres undefined) | inconclusive: 17.9% | – |
| Cc1cccn2c(=O)c(C=C(C#N)C#N)c(N3CCN(c4ccccc4)CC3)nc12 | inconclusive: -44.3% | – |
| COc1ccc(OC)c(NC(=O)c2ccc(S(=O)(=O)N3CCOCC3)cc2)c1 | – | inconclusive: 146 nM [falling, single point] |
| Cc1cc(/C=C(/C#N)c2cccc(F)c2)c(C)n1-c1cccnc1 | – | inconclusive: 6510 nM [rising, single point] |
| C[C@@H]1C=C[C@](Cc2ccccc2)(C(=O)NCC2CC2)N1C(=O)c1ccccc1 | – | inconclusive: 10300 nM [falling, partial curve] |
| Cc1nn(-c2ccccc2)c(Cl)c1C1C(C#N)=C(N)Oc2c1c(C)nn2-c1ccccc1 (centres undefined) | – | inconclusive: 4610 nM [activator, full curve] |
| Cc1c([N+](=O)[O-])cc(C(=O)Oc2ccc(Br)cc2C(=S)N2CCCCC2)cc1[N+](=O)[O-] | inconclusive: -174% | – |
